{"sequences": {"note": "The chains behind the UniProt entries cited, without tags or fusion partners. Where a name states a change or a piece, a line headed by the entry shows the natural chain unless it says otherwise.", "UniProt P11473": "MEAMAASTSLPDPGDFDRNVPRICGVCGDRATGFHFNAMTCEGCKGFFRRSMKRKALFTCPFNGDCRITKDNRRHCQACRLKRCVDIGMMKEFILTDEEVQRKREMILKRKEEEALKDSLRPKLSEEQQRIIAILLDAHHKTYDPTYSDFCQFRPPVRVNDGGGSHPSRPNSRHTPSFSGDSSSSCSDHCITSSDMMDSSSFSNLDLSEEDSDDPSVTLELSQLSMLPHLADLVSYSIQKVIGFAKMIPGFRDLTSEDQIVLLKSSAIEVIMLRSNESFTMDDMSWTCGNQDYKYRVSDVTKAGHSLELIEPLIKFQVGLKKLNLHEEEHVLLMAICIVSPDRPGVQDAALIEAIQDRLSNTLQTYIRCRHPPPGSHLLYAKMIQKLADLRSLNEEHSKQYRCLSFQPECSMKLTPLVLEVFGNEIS"}, "source": "PubChem BioAssay AID504847", "about": "(National Center for Advancing Translational Sciences (NCATS), 2011)", "note": "Where “and” joins values, the source holds several entries; their conditions need not be identical. Equal entries are not always repeated. Out of some 400,000 compounds screened, about 3,700 (0.93%) were called active. The shares of active, inactive and inconclusive entries below differ from those in the screen. Calls come from the whole dose curve; as a rule, active = well fitted inhibition curve with a large enough effect; inconclusive = small, poorly fitted or top-dose-only effect, or another doubt; inactive = no such curve, though single readings can be large or run the other way. Where the call is inconclusive, the potency comes from a doubtful curve fit. % is set by controls: 0 for no effect and ±100 for the full control effect; potency is the fitted concentration of half-maximal effect."}
{"target": "Vitamin D3 receptor (Homo sapiens) (UniProt P11473)", "experiment": "Inhibitors of the vitamin D receptor (VDR): qHTS", "details": "VDR-SRC2-3 peptide fluorescence polarization, 2 h; max response, negative = inhibition: hits give low values", "procedure,_shortened": "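The screen uses fluorescence polarization to detect compounds that interfere with recruitment of the SRC2-3 coactivator peptide to VDR; plates are read after 2 h at room temperature.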"}
{"smiles": "COc1cc2c(cc1OC)CN(C(C)C(=O)N1CCc3ccccc31)CC2", "note": "(centres undefined)", "max response, negative = inhibition": "inactive: 6.59%"}
{"smiles": "CC12CCC=CC1C(c1cccc(Br)c1)N(Cc1ccccc1)C2=O", "note": "(centres undefined)", "Potency": "inconclusive: 89.1 µM [inhibitor, partial curve, poor fit]"}
{"smiles": "CCCOC(=O)c1c(-c2ccc(C)cc2C)csc1NC(=O)C1C2CCC(O2)C1C(=O)O", "note": "(centres undefined)", "Potency": "inconclusive: 56.2 µM [inhibitor, partial curve, poor fit]"}
{"smiles": "Cc1ccc2nc(-c3ccc(C)o3)c(Nc3ccc(Cl)cc3)n2c1", "Potency": "inconclusive: 63.1 µM [inhibitor, partial curve, poor fit]"}
{"smiles": "CC(C)(C)n1cnc2cc(NCc3ccc(Br)cc3)ccc21", "Potency": "inconclusive: 25.1 µM [inhibitor, partial curve, poor fit]"}
{"smiles": "COc1cc(C(=O)NC2CCCC(C)C2C)ccc1OCC(=O)N1CCOCC1", "note": "(centres undefined)", "max response, negative = inhibition": "inactive: -2.28%"}
{"smiles": "Cc1oc2c(c1C(=O)c1ccccc1)C(=O)C(=O)c1ccccc1-2", "Potency": "inconclusive: 7.94 µM [inhibitor, full curve, poor fit]"}
{"smiles": "CC(=O)c1ccc(NC(=O)COC(=O)Cn2cnc3ccccc32)cc1", "Potency": "inconclusive: 89.1 µM [inhibitor, single point]"}
{"smiles": "Nc1ccc(-c2c3ccc(=O)cc-3oc3cc(O)ccc23)cc1C(=O)O", "max response, negative = inhibition": "inactive: 0.222%"}
{"smiles": "COc1ccc(CN2C(=O)CCC2(C)C(=O)NCc2cccnc2)c(OC)c1", "note": "(centres undefined)", "Potency": "inconclusive: 31.6 µM [inhibitor, partial curve, poor fit]"}
{"smiles": "CCCCN1C(=O)/C(=c2\\sc3nc(=O)c(-c4ccccc4)nn3c2=O)c2ccccc21", "Potency": "inconclusive: 50.1 µM [inhibitor, partial curve]"}
{"smiles": "N#Cc1cc([N+](=O)[O-])ccc1N1CCCC1", "Potency": "inconclusive: 56.2 µM [inhibitor, partial curve, poor fit]"}
{"smiles": "COc1ccc(CN2CCC(CO)(CCOc3ccccc3)CC2)cc1C", "max response, negative = inhibition": "inactive: -1.96%"}
{"smiles": "COc1ccc(NS(=O)(=O)c2cc(NC(=O)c3cnccn3)ccc2N2CCCC2)cc1", "Potency": "inconclusive: 35.5 µM [inhibitor, full curve]"}
{"smiles": "COc1ccccc1-n1ccnc1SCC(=O)NCc1ccco1", "Potency": "inconclusive: 79.4 µM [inhibitor, single point]"}
{"smiles": "Cn1c(CCC(=O)O)nc2cc(S(=O)(=O)N3CCCCC3)ccc21", "Potency": "inconclusive: 100 µM [inhibitor, single point]"}
{"smiles": "O=C(Nc1ccc(F)cc1)c1nc[nH]c1C(=O)Nc1ccccc1[N+](=O)[O-]", "Potency": "inconclusive: 89.1 µM [inhibitor, single point]"}
{"smiles": "O=C(NCC1CCN(c2ccc(S(=O)(=O)N3CCOCC3)cc2)CC1)Nc1ccccc1", "Potency": "inconclusive: 89.1 µM [inhibitor, single point]"}
{"smiles": "CCOc1ccc(C(=O)C(CN2CCOCC2)c2ccccc2)cc1", "note": "(centres undefined)", "Potency": "inconclusive: 89.1 µM [inhibitor, single point]"}
{"smiles": "CN1CCN(C2Cc3ccccc3Sc3ccc(Cl)cc32)CC1", "note": "(centres undefined)", "Potency": "inconclusive: 44.7 µM [inhibitor, partial curve, poor fit]"}
{"smiles": "Cc1cc(C(=O)CSc2nc3ccc(Cl)cc3[nH]2)c(C)n1Cc1ccco1", "Potency": "inconclusive: 79.4 µM [inhibitor, partial curve, poor fit]"}
{"smiles": "O=S1(=O)NC(=NCC(c2ccco2)N2CCCCC2)c2ccccc21", "note": "(centres undefined)", "Potency": "inconclusive: 89.1 µM [inhibitor, single point]"}
{"smiles": "Cc1cc(Br)cc(/C=N/NC(=O)c2ccc3c(c2)OCO3)c1O", "max response, negative = inhibition": "inactive: 6.51%"}
{"smiles": "Cn1ncc(Cl)c1C(=O)Nc1cccc(Cl)c1", "Potency": "inconclusive: 70.8 µM [inhibitor, partial curve]"}
{"smiles": "O=C(CSc1ncn[nH]1)N1c2ccccc2Sc2ccccc21", "max response, negative = inhibition": "inactive: -27.8%"}
{"smiles": "CC(C)(CO)Nc1nc(N2CCCC2)nc(N2CCCC2)n1", "Potency": "inconclusive: 25.1 µM [inhibitor, single point]"}
{"smiles": "O=C(CCN1CCc2ccccc2C(O)(c2ccccc2)C1)c1ccc2c(c1)OCCO2", "note": "(centres undefined)", "Potency": "active: 35.5 µM"}
{"smiles": "Cc1ccc(S(=O)(=O)N2CCCCC2C(=O)NCc2ccco2)cc1", "note": "(centres undefined)", "Potency": "inconclusive: 89.1 µM [inhibitor, partial curve, poor fit]"}
{"smiles": "COc1c2c(c(C(=O)/C=C/C(C)=C/c3ccccc3)c3c1OCO3)CCN(C)C2", "Potency": "active: 44.7 µM"}
{"smiles": "CCN(C(=O)CN1C(=O)COc2ccc(S(=O)(=O)N3CCCCCC3)cc21)c1cccc(C)c1", "Potency": "inconclusive: 10 µM [inhibitor, partial curve, poor fit]"}
{"smiles": "COc1ccccc1C(=O)NCC(=O)OCC(=O)N(CC(C)C)c1c(N)n(Cc2ccccc2)c(=O)[nH]c1=O", "max response, negative = inhibition": "inactive: -11.5%"}
{"smiles": "CCn1nc(C)c(CN2CCC(Oc3ccc(C(=O)N4CCCC4)cc3)CC2)c1C", "Potency": "inconclusive: 28.2 µM [inhibitor, partial curve, poor fit]"}
{"smiles": "Cc1ccc(C)c(OCc2cc(C(=O)NC3CCOC(C)(C)C3)no2)c1", "note": "(centres undefined)", "max response, negative = inhibition": "inactive: -6.48%"}
{"smiles": "COc1ccc(-c2ccc(/C=N/N3C(=O)C4C5C=CC(C6CC56)C4C3=O)o2)c([N+](=O)[O-])c1", "note": "(centres undefined)", "Potency": "inconclusive: 79.4 µM [inhibitor, single point]"}
{"smiles": "CC[N+]1(C)CCC(O)(c2ccc(OC)cc2)C(C(=O)c2ccc(OC)cc2)C1", "note": "(centres undefined)", "Potency": "inconclusive: 56.2 µM [inhibitor, partial curve, poor fit]"}
{"smiles": "COc1ccc(C)cc1NC(=O)C1COc2ccccc2C1", "note": "(centres undefined)", "max response, negative = inhibition": "inactive: 0.0782%"}
{"smiles": "Cn1c(O)c(/C=C2\\C=NN=C2c2ccccc2)sc1=S", "max response, negative = inhibition": "inactive: -10.6%"}
{"smiles": "CCn1nc(C(=O)OCC(=O)c2ccc3c(c2)OCCO3)c2ccccc2c1=O", "Potency": "inconclusive: 63.1 µM [inhibitor, partial curve, poor fit]"}
{"smiles": "CCOC(=O)c1cnn(CCOC(=O)c2ccc(OC)cc2)c1NC(=O)c1ccc(OC)cc1", "max response, negative = inhibition": "inactive: -6.43%"}
{"smiles": "CCN(CC)C(=O)Cc1c(OC)ccc2cc(Br)ccc12", "Potency": "inconclusive: 89.1 µM [inhibitor, single point]"}
{"smiles": "O=C(CN1C(=O)c2ccccc2C1=O)NCc1ccc(F)cc1", "Potency": "inconclusive: 56.2 µM [inhibitor, partial curve, poor fit]"}
{"smiles": "COc1ccc(C(=O)N2CCCC(CNC(=O)c3ccccc3Cl)C2)o1", "note": "(centres undefined)", "Potency": "inconclusive: 79.4 µM [inhibitor, partial curve, poor fit]"}
{"smiles": "Cc1cc(NC(=O)CSc2ccc3nnc(-c4ccccc4)n3n2)no1", "max response, negative = inhibition": "inactive: 3%"}
{"smiles": "CCc1c(C)c(C#N)c2[nH]c3ccccc3n2c1=S", "Potency": "inconclusive: 70.8 µM [inhibitor, partial curve]"}
{"smiles": "O=C(O)CCC(=O)CCC(=O)c1ccc(Cl)cc1", "Potency": "inconclusive: 4.47 µM [inhibitor, partial curve, poor fit]"}
{"smiles": "O=C(/C=C/c1ccccc1)CCN1CCCCC1", "Potency": "active: 28.2 µM"}
{"smiles": "C=CCn1c(SCC(=O)NCCC2=CCCCC2)nc2ccc(Cl)cc2c1=O", "Potency": "inconclusive: 50.1 µM [inhibitor, partial curve, poor fit]"}
{"smiles": "Cc1nc2ccccc2n2c(-c3ccccc3)c3c(=O)n(C)c(=O)n(C)c3c12", "Potency": "inconclusive: 89.1 µM [inhibitor, single point]"}
{"smiles": "CCCCCC(O)/C=C/C=O", "note": "(centres undefined)", "Potency": "inconclusive: 44.7 µM [inhibitor, partial curve, poor fit]"}
{"smiles": "CCOc1ccc(NC(=S)NC(=O)c2ccco2)cc1", "max response, negative = inhibition": "inactive: -7.32%"}
{"smiles": "COc1cccc(C(=O)NC2CCCc3ccccc32)c1", "note": "(centres undefined)", "Potency": "inconclusive: 89.1 µM [inhibitor, partial curve, poor fit]"}
{"smiles": "O=C(CN1C(=O)/C(=C/c2cccc(Br)c2)SC1=S)NCCCN1CCOCC1", "Potency": "inconclusive: 100 µM [inhibitor, single point]"}
{"smiles": "N#Cc1c(NC(=O)c2ccccc2Cl)n(Cc2ccccc2)c2nc3ccccc3nc12", "Potency": "inconclusive: 56.2 µM [inhibitor, partial curve, poor fit]"}
{"smiles": "CC(NC(=O)c1cnc2ccccc2n1)c1ccccc1", "note": "(centres undefined)", "Potency": "inconclusive: 56.2 µM [inhibitor, single point]"}
{"smiles": "Cc1ccc(N(C(C)C(=O)O)S(=O)(=O)c2cccnc2)cc1", "note": "(centres undefined)", "Potency": "inconclusive: 100 µM [inhibitor, single point]"}
{"smiles": "COc1ccc(Cn2c(C(=O)O)c(CNCCc3ccco3)c3ccc(C)cc32)cc1", "max response, negative = inhibition": "inactive: 7.2%"}
{"smiles": "COc1ccc(F)cc1S(=O)(=O)NCC(c1ccco1)S(=O)(=O)c1ccc(F)cc1", "note": "(centres undefined)", "max response, negative = inhibition": "inactive: 6.2%"}
{"smiles": "COc1cc([N+](=O)[O-])ccc1-c1ccc(/C=C2\\C(=O)ON=C2c2ccccc2)o1", "Potency": "inconclusive: 79.4 µM [inhibitor, partial curve, poor fit]"}
{"smiles": "CCOC(=O)c1ccc(N2C(=O)CC(C(=O)OC)=C2C)cc1", "Potency": "inconclusive: 1.78 µM [inhibitor, full curve, poor fit]"}
{"smiles": "Cc1cc(Cl)cc(Cl)c1OCC(=O)NCc1ccco1", "Potency": "inconclusive: 89.1 µM [inhibitor, single point]"}
{"smiles": "CCOc1ccc(NC(=O)c2cnn(-c3ccc(C)c(C)c3)c2C2CCN(C(=O)OC(C)(C)C)CC2)cc1", "max response, negative = inhibition": "inactive: -8.06%"}
{"smiles": "CCN1CCC2(CC1)N=C(c1ccc(F)cc1)C(=S)N2C(=O)c1ccc(C)cc1", "Potency": "inconclusive: 89.1 µM [inhibitor, single point]"}
{"smiles": "O=c1cc(-c2ccccc2)[nH]c2ccc(F)cc12", "max response, negative = inhibition": "inactive: -9.18% and inactive: -1.87%"}
{"smiles": "CC1Cc2ccccc2N1C(=O)CSc1nnc(C2CC2)n1C", "note": "(centres undefined)", "Potency": "inconclusive: 89.1 µM [inhibitor, single point]"}
